Measurements from US20150299218A1, “Heterocyclic Compounds As Inhibitors Of The Sodium Iodide Symporter” (COMMISSARIAT A L'ENERGIE ATOMIQUE ET AUX ENERGIES …, priority 2012, published 2015).
At least one structure is not confirmed: it was looked up by name or label, or the drawing left a doubt.

Molecular target: T1, sodium iodide symporter (NIS) (Rattus norvegicus, UniProt Q63008)
T1 construct: endogenous in cells; host or cells: FRTL5 (rat thyroid-derived cells)
T1 sequence (Q63008 1-618): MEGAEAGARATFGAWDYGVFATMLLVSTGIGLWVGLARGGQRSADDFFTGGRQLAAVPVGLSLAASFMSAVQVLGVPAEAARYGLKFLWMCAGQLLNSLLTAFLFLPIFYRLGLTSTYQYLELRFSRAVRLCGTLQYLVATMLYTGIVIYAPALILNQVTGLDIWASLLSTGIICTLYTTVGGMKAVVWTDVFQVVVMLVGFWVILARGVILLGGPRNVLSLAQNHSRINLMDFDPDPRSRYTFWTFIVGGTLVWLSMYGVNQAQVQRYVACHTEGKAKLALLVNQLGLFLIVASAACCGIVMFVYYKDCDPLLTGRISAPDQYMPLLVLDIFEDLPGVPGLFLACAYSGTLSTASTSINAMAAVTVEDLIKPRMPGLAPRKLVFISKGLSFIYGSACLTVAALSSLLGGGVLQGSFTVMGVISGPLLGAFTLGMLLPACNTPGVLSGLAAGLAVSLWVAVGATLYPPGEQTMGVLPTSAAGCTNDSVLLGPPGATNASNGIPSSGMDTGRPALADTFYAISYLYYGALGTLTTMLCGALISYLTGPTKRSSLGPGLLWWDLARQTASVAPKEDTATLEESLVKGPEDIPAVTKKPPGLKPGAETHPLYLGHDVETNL
Assay: radioiodide uptake assay in FRTL5 cells (24-well plate)
Assay type: cell-based
Procedure: In the framework of the invention, the NIS inhibitor is evaluated as follow: rat thyroid-derived cells (FRTL5 cells expressing NIS) are incubated during 1 h with iode and 125-I as a tracer, and in the presence of various concentration of compound. For each tested concentration of compound, the amount of iodide inside the cells is quantified by radioactive counting. The half-maximum inhibitory concentration (IC50) is evaluated for each compound by regression analysis (to the Hill equation) from dose-response data. A detailed protocol is provided in the experimental section, and also in N. Lecat-Guillet et al., ChemMedChem, 2008.
The synthesized compounds were evaluated for their ability to inhibit iodide entrapment in FRTL5 cells using a rodiodide uptake assay. The IC50 values were measured in at least two independent experiments.
The biological activity of each compound was determined in FRTL5 cells, using a 24-well plate format radioiodide uptake assay. Each experiment was run in quadruplicate and at least twice independently. Compound potency was expressed as IC50, the concentration of compound necessary to achieve 50% inhibition of iodide uptake. […]
The procedure is performed at 20±2° C. in a well ventilated hood. […] Scintillation cocktail (Ultima gold LLT, Perkin Elmer) is added to each vial (4 mL) and the radioactivity is measured (Wallac 1409). […]

SMILES: O=[N+]([O-])c1cccc(C2NCCc3c2[nH]c2ccccc32)c1 (stereo not shown) [Compound 2, reference compound]
- IC50 iodide uptake, reference compound / assay control: 400 nM
